These are yes or no findings as the source states them, for the method shown. For part of these data: In cells and extracts the contact can be indirect. Some results given as binding are weak or reduced against the parent protein; the word gives no strength. For part of these data: Where a sequence is shown, tags or fusion partners need not be part of it.
Tests used:
[1] = molecular target: T1, endogenous TUFT1 in A549 cells (human (endogenous in A549)) (UniProt Q9NNX1); assay: co-IP; endogenous proteins in lysates of A549 cells transfected with the indicated siRNAs; immunoprecipitation with TUFT1 antibody, HA antibody beside it; immunoblot of the precipitates
T1 sequence: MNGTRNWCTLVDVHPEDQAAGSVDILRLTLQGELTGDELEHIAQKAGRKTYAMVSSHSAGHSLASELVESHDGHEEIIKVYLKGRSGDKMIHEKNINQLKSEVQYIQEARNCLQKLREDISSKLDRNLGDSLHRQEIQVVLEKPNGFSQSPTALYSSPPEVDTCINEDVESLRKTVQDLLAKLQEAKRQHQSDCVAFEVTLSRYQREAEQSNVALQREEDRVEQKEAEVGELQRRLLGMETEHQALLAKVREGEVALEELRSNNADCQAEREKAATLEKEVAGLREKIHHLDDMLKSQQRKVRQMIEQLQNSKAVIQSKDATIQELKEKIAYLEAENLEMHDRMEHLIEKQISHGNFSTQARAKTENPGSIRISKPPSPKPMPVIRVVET

The chains behind the UniProt entries cited, without tags or fusion partners.
UniProt Q9Y3P9: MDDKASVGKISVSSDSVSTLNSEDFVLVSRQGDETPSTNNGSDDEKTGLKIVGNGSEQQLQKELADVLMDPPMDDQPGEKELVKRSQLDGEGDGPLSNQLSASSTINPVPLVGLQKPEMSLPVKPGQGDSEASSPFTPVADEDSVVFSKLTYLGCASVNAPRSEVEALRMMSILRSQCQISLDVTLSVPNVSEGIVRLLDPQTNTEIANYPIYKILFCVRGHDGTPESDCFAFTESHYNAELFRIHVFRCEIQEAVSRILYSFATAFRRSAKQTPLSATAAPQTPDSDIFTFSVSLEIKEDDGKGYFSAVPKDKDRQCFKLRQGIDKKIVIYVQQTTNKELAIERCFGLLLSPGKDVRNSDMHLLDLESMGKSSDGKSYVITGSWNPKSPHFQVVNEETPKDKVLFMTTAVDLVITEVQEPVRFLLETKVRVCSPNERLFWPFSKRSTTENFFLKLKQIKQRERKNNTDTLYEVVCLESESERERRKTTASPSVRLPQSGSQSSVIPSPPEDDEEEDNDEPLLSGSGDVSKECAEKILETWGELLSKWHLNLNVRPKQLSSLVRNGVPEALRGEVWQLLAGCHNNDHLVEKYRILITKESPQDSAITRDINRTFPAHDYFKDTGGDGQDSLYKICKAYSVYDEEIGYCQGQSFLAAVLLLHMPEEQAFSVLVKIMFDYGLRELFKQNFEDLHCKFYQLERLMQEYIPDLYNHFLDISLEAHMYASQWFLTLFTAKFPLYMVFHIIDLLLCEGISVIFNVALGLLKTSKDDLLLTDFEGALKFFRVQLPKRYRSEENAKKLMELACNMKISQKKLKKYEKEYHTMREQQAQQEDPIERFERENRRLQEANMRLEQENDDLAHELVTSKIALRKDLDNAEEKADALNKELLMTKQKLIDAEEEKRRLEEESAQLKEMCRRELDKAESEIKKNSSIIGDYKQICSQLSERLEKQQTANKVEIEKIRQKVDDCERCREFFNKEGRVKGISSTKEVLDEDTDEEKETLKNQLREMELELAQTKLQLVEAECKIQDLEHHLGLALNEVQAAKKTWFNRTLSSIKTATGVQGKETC

[2] = molecular target: T2, tuftelin 1 (TUFT1), exogenously expressed in HEK293T cells (human) (UniProt Q9NNX1); assay: co-IP; exogenously expressed RABGAP1 and TUFT1 in HEK293T cells; lysis buffer 1% NP-40, 150 mM NaCl, 20 mM Tris-HCl pH 7.5; which protein was precipitated not given
T2 sequence: T1 sequence

[3] = molecular target: T3, GST-10xHis-TUFT1 (human) (UniProt Q9NNX1); assay: pull-down; GST pull-down with GST-10xHis-TUFT1 or control GST and recombinant RABGAP1; RIPA buffer (50 mM Tris-HCl pH 8.0, 150 mM NaCl, 0.1% SDS, 0.5% DOC, 1% Triton X-100); detection by immunoblotting; both purified
T3 sequence: T1 sequence

endogenous RABGAP1 in A549 cells (from UniProt Q9Y3P9 1-1069)
binding [1]: binds

RABGAP1, exogenously expressed in HEK293T cells (from UniProt Q9Y3P9 1-1069)
binding [2]: binds

recombinant RABGAP1 (Abcam #ab161730) (from UniProt Q9Y3P9 1-1069)
binding [3]: binds

Source: paper PMC5798889
